Source: the ROBIN nucleic acid binder screens (doi:10.1002/anie.202211358).

Targets (5′ to 3′):
T1: SAM-II riboswitch RNA pseudoknot, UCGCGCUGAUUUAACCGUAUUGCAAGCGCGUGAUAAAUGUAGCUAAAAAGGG. Hit rate about 1% of about 21,000 compounds.
T2: TPP riboswitch RNA three-way junction, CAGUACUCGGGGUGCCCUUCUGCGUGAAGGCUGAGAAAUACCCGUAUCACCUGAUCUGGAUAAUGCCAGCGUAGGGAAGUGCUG. Hit rate about 0.7% of about 24,000 compounds.
T3: PreQ1 riboswitch RNA pseudoknot, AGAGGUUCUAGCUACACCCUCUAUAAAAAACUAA. From B. subtilis. Hit rate about 0.7% of about 24,000 compounds.

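The test is a small-molecule microarray: each compound is printed twice on a reactive slide, and binding shows as fluorescence of the labelled oligonucleotide after washing. The data file lists only calls. An earlier report of the laboratory on the PreQ1, TPP and SAM-II riboswitches (doi:10.1038/s41467-019-09493-3) used 1 µM RNA for 2 h and required a mean Z-score above 3 (spot signal-to-noise against the whole library), a score well above that on a control array, and duplicate spots agreeing (coefficient of variation under 100); it then also set aside compounds that hit other targets, which this list keeps. The cut-offs behind this list may differ. These are primary screening calls, not affinities; a compound without a hit may have attached poorly or may still bind in solution.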
Key: active = hit, inactive = tested without a hit.
This is an unselected part of the compounds tested.
A target missing from an entry has no call listed here.

Cc1cccc(NC(=O)c2sc3nc4c(cc3c2N)CCC4)c1 was scored T1: inactive; T2: inactive; T3: inactive.
CCCn1cnnc1CNC1CCC2(CCNCC2)CC1 was scored T1: inactive; T2: inactive; T3: inactive.
C=C1[C@H](n2cnc3c(=O)nc(N)[nH]c32)C[C@H](O)[C@H]1CO was scored T1: inactive; T2: inactive; T3: inactive.
COc1ccc(-c2n[nH]cc2-c2cc(C3CCC3)nc(N)c2C#N)cc1 was scored T1: inactive; T2: inactive; T3: inactive.
CC(C)CNc1ncnc2c1sc1nc3c(cc12)COC(C)(C)C3 was scored T1: inactive; T2: inactive; T3: inactive.
Cc1cc(NC2c3ncccc3C(=O)N2Cc2cccs2)ccc1Br (configuration not stated) was scored T1: inactive; T2: inactive; T3: inactive.
Cn1nc(-c2cccnc2)cc1NC(=O)N1CCOCC(CO)C1 (configuration not stated) was scored T1: inactive; T2: inactive; T3: inactive.
CN(C)c1nc(NC(C)(C)C)nc(-n2cnc(SCc3ccccc3)n2)n1 was scored T2: inactive; T3: inactive.
Cc1cccc(CSCCCNCC2(O)CCNC2)c1 (configuration not stated) was scored T1: inactive; T2: inactive; T3: inactive.
Nc1ccc(/N=N/c2ccccc2Cl)c(N)n1 was scored T1: inactive; T2: inactive; T3: inactive.
CCc1c(C)nc2ncnn2c1Nc1ccccc1N1CCN(C(=O)C(C)C)CC1 was scored T1: inactive; T2: inactive; T3: inactive.
CC(=O)Nc1cccc(NC(C)=O)n1 was scored T1: inactive; T2: inactive; T3: inactive.
CCOc1ccccc1NS(=O)(=O)c1cc(Br)cnc1N was scored T2: inactive; T3: inactive.
Cc1cccc(OCC(O)Cn2c(C(C)C)nc3ccccc32)c1 (configuration not stated) was scored T2: inactive; T3: inactive.
CC(C)n1cnnc1CN(C)C(=O)C1CC2(CCNCC2)CN1 (configuration not stated) was scored T1: inactive; T2: inactive; T3: inactive.
CSc1nc(-c2ccccc2)c(C#N)c(N(C)CCO)n1 was scored T2: inactive; T3: inactive.
COc1ccc(Nc2cc(-c3cnc(N)nc3)nc(N3CCOCC3)n2)cn1 was scored T1: inactive; T2: inactive; T3: inactive.
N#Cc1ccc(N2CCCC(n3cc(C(=O)NCCO)nn3)C2)nc1 (configuration not stated) was scored T1: inactive; T2: inactive; T3: inactive.
CCC(CO)N(Cc1cc(C(C)(C)C)[nH]n1)Cc1ccco1 (configuration not stated) was scored T1: inactive; T2: inactive; T3: inactive.
CCCCNc1nc(Oc2ccc(=O)n(C)n2)nc(N2CCOCC2)n1 was scored T2: inactive; T3: inactive.
COc1cc(Br)c(OC)cc1N was scored T1: inactive; T2: inactive; T3: inactive.
Cc1ccc2nc(C3=C(N)N(C4CCCCCC4)CC3=O)[nH]c2c1 was scored T2: inactive; T3: inactive.

For reference, 3 entries once more:

- Cc1cccc(NC(=O)c2sc3nc4c(cc3c2N)CCC4)c1 | T1: inactive; T2: inactive; T3: inactive
- COc1ccc(-c2n[nH]cc2-c2cc(C3CCC3)nc(N)c2C#N)cc1 | T1: inactive; T2: inactive; T3: inactive
- CCOc1ccccc1NS(=O)(=O)c1cc(Br)cnc1N | T2: inactive; T3: inactive